# Reference: the supplement of paper PMC10032668
# The chains behind the UniProt entries cited, without tags or fusion partners.
# TUBB6, Q9BUF5, UniProt Q9BUF5, whole entry: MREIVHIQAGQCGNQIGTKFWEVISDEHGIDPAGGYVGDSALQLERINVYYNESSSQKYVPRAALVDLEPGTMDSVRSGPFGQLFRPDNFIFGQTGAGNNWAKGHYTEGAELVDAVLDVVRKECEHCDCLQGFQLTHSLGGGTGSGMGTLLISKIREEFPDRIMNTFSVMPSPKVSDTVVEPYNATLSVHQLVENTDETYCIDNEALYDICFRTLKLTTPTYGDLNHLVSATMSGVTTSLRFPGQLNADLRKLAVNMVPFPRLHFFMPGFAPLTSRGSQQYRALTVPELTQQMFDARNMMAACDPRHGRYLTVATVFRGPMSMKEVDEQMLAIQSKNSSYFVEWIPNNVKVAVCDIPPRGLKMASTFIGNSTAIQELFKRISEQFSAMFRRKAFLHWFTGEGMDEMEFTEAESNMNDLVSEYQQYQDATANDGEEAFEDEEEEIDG
# This is one part of the list. Only hits are listed; about a third recur on repeated control peptides.
# Tests used:
# Test in all cases: PRISMA enrichment of interactor (LFQ) in peptide spot vs all other peptide spots (log2 fold change); higher = stronger / more specific binding of the interactor to the peptide
# [1] = target: DDX23, Q9BUQ8
# Method: (§1)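 PRISMA: 15-aa overlapping tiles (offset 8 aa) of 60 microproteins, plus SOS1/GLUT1 control peptides, were spot-synthesized on cellulose membranes in triplicate. Membranes were incubated with benzonase-treated HEK293T lysate, and bound proteins were identified by LC-MS/MS with LFQ. Enrichment is the log2 fold change of each protein in one spot versus all other spots. Only interactors passing the significance cutoff are listed.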
# [2] = target: DIMT1, Q9UNQ2
# Method: as §1
# [3] = target: DTYMK, P23919
# Method: as §1
# [4] = target: GAR1, Q9NY12
# Method: as §1
# [5] = target: GTF2I, P78347
# Method: as §1
# [6] = target: NOC2L, Q9Y3T9
# Method: as §1
# [7] = target: PPAN-P2RY11
# Method: as §1
# [8] = target: TXLNA, P40222
# Method: as §1
# [9] = target: DDX42, Q86XP3
# Method: as §1
# [10] = target: MRPL43, Q8N983
# Method: as §1
# [11] = target: NEPRO, Q6NW34
# Method: as §1
# [12] = target: DDX5, P17844
# Method: as §1
# [13] = target: EIF1, P41567
# Method: as §1
# [14] = target: HSPB1, P04792
# Method: as §1
# [15] = target: MED20, Q9H944
# Method: as §1
# [16] = target: MRPL27, Q9P0M9
# Method: as §1
# [17] = target: TRIM26, Q12899
# Method: as §1
# [18] = target: TRMT112, Q9UI30
# Method: as §1
# [19] = target: PARK7, Q99497
# Method: as §1
# [20] = target: POLR2J3, Q9H1A7
# Method: as §1
# [21] = target: POP1, Q99575
# Method: as §1
# [22] = target: PUSL1, Q8N0Z8
# Method: as §1
# [23] = target: TCEA1, P23193
# Method: as §1
# [24] = target: UFD1, Q92890
# Method: as §1
# [25] = target: EIF4H, Q15056
# Method: as §1
# [26] = target: FAM207A, Q9NSI2
# Method: as §1
# [27] = target: NDUFA8, P51970
# Method: as §1
# [28] = target: QKI, Q96PU8
# Method: as §1
# [29] = target: RAVER1, Q8IY67
# Method: as §1
# [30] = target: DDX54, Q8TDD1
# Method: as §1
# [31] = target: EXOC8, Q8IYI6
# Method: as §1
# [32] = target: RSL1D1, O76021
# Method: as §1
# [33] = target: SARDH, Q9UL12
# Method: as §1
# [34] = target: SRSF4, Q08170
# Method: as §1
# [35] = target: WDCP, Q9H6R7
# Method: as §1
# [36] = target: DDX55, Q8NHQ9
# Method: as §1
# [37] = target: FLOT2, Q14254
# Method: as §1
# [38] = target: GART, P22102
# Method: as §1
# [39] = target: GNG12, Q9UBI6
# Method: as §1
# [40] = target: HNRNPH2, P55795
# Method: as §1
# [41] = target: NAT10, Q9H0A0
# Method: as §1
# [42] = target: RBM10
# Method: as §1
# [43] = target: RBM14, Q96PK6
# Method: as §1
# [44] = target: RNF213, Q63HN8
# Method: as §1
# [45] = target: SLC25A10, Q9UBX3
# Method: as §1
# [46] = target: TPM3, P06753
# Method: as §1
# [47] = target: TUBB6, Q9BUF5
# Method: as §1
# [48] = target: UMPS, P11172
# Method: as §1
# [49] = target: DECR2, Q9NUI1
# Method: as §1
# [50] = target: ELOVL5, Q9NYP7
# Method: as §1
# [51] = target: GNL1, P36915
# Method: as §1
# [52] = target: GPR180, Q86V85
# Method: as §1
# [53] = target: MFN2, O95140
# Method: as §1
# [54] = target: MRPL18, Q9H0U6
# Method: as §1
# [55] = target: NOP53, Q9NZM5
# Method: as §1
# [56] = target: PIGK, Q92643
# Method: as §1
# [57] = target: POP7, O75817
# Method: as §1
# [58] = target: PRMT5, O14744
# Method: as §1
# [59] = target: PTCD3, Q96EY7
# Method: as §1
# [60] = target: RRP36, Q96EU6
# Method: as §1
# [61] = target: SMARCAD1, Q9H4L7
# Method: as §1
# [62] = target: SUPT5H, O00267
# Method: as §1
# [63] = target: DEF8, Q6ZN54
# Method: as §1
# [64] = target: HIST1H1E, P10412
# Method: as §1
# [65] = target: IST1, P53990
# Method: as §1
# [66] = target: MRPL39, Q9NYK5
# Method: as §1
# [67] = target: SBNO1, A3KN83
# Method: as §1
# [68] = target: SERPINA1, P01009
# Method: as §1
# [69] = target: TF, P02787
# Method: as §1
# [70] = target: ZFR, Q96KR1
# Method: as §1
binder,measurement,setting,value
PQVLRMASRETRKWT [C5orf56],PRISMA enrichment of interactor (log2),[1],6.09
same,PRISMA enrichment of interactor (log2),[2],5.66
same,PRISMA enrichment of interactor (log2),[3],5.68
same,PRISMA enrichment of interactor (log2),[4],6.66
same,PRISMA enrichment of interactor (log2),[5],6.15
same,PRISMA enrichment of interactor (log2),[6],6.76
same,PRISMA enrichment of interactor (log2),[7],6.46
same,PRISMA enrichment of interactor (log2),[8],5.78
QPDLLARRRLKRCPS [PVT1],PRISMA enrichment of interactor (log2),[9],9.94
same,PRISMA enrichment of interactor (log2),[10],5.26
same,PRISMA enrichment of interactor (log2),[11],4.8
MAILRQNMASLDFFL [RP3-332B22.1],PRISMA enrichment of interactor (log2),[12],4.65
same,PRISMA enrichment of interactor (log2),[13],5.81
same,PRISMA enrichment of interactor (log2),[14],4.77
same,PRISMA enrichment of interactor (log2),[15],4.52
same,PRISMA enrichment of interactor (log2),[16],6.5
same,PRISMA enrichment of interactor (log2),[17],4.92
same,PRISMA enrichment of interactor (log2),[18],6.37
FKWGFAAFVVAVGAE [NDUFB3],PRISMA enrichment of interactor (log2),[12],5.33
same,PRISMA enrichment of interactor (log2),[19],4.79
same,PRISMA enrichment of interactor (log2),[20],4.34
same,PRISMA enrichment of interactor (log2),[21],6.43
same,PRISMA enrichment of interactor (log2),[22],4.57
same,PRISMA enrichment of interactor (log2),[23],4.13
same,PRISMA enrichment of interactor (log2),[24],4.37
LVVGFLLCLFLLMPP [TUG1],PRISMA enrichment of interactor (log2),[12],4.57
same,PRISMA enrichment of interactor (log2),[13],5.57
same,PRISMA enrichment of interactor (log2),[25],4.64
same,PRISMA enrichment of interactor (log2),[26],4.54
same,PRISMA enrichment of interactor (log2),[27],4.57
same,PRISMA enrichment of interactor (log2),[28],4.71
same,PRISMA enrichment of interactor (log2),[29],4.49
same,PRISMA enrichment of interactor (log2),[24],4.73
FCISSGSRSTSMPSM [RP11-140K17.3_2],PRISMA enrichment of interactor (log2),[30],5.7
same,PRISMA enrichment of interactor (log2),[31],3.84
same,PRISMA enrichment of interactor (log2),[32],5.38
same,PRISMA enrichment of interactor (log2),[33],5.77
same,PRISMA enrichment of interactor (log2),[34],6.04
same,PRISMA enrichment of interactor (log2),[35],4.47
GLQGVRSMSPLTKVQ [JPX],PRISMA enrichment of interactor (log2),[36],4.08
same,PRISMA enrichment of interactor (log2),[37],4.76
same,PRISMA enrichment of interactor (log2),[38],5.35
same,PRISMA enrichment of interactor (log2),[39],3.82
same,PRISMA enrichment of interactor (log2),[40],6.16
same,PRISMA enrichment of interactor (log2),[41],5
same,PRISMA enrichment of interactor (log2),[42],5.24
same,PRISMA enrichment of interactor (log2),[43],4.86
same,PRISMA enrichment of interactor (log2),[44],8.69
same,PRISMA enrichment of interactor (log2),[45],4.91
same,PRISMA enrichment of interactor (log2),[46],7.77
same,PRISMA enrichment of interactor (log2),[47],4.83
same,PRISMA enrichment of interactor (log2),[48],6.54
RILQVQLHRLAFPDA [TBX5-AS1],PRISMA enrichment of interactor (log2),[49],4.38
same,PRISMA enrichment of interactor (log2),[50],7.14
same,PRISMA enrichment of interactor (log2),[51],6.34
same,PRISMA enrichment of interactor (log2),[52],4.85
same,PRISMA enrichment of interactor (log2),[53],3.89
same,PRISMA enrichment of interactor (log2),[54],6.38
same,PRISMA enrichment of interactor (log2),[55],6.48
same,PRISMA enrichment of interactor (log2),[56],3.81
same,PRISMA enrichment of interactor (log2),[57],5.38
same,PRISMA enrichment of interactor (log2),[58],4.94
same,PRISMA enrichment of interactor (log2),[59],5.42
same,PRISMA enrichment of interactor (log2),[60],4.43
same,PRISMA enrichment of interactor (log2),[61],5.06
same,PRISMA enrichment of interactor (log2),[62],5.78
MGALFRLLLQERGKA [LINC01560],PRISMA enrichment of interactor (log2),[63],10.6
same,PRISMA enrichment of interactor (log2),[64],6.23
same,PRISMA enrichment of interactor (log2),[65],7.88
same,PRISMA enrichment of interactor (log2),[66],5.65
same,PRISMA enrichment of interactor (log2),[7],5.35
same,PRISMA enrichment of interactor (log2),[67],5.72
same,PRISMA enrichment of interactor (log2),[68],7.35
same,PRISMA enrichment of interactor (log2),[69],4.74
same,PRISMA enrichment of interactor (log2),[70],6.3

# Copied from the listing for reference:
binder,measurement,setting,value
MAILRQNMASLDFFL [RP3-332B22.1],PRISMA enrichment of interactor (log2),[14],4.77
same,PRISMA enrichment of interactor (log2),[15],4.52
same,PRISMA enrichment of interactor (log2),[16],6.5
same,PRISMA enrichment of interactor (log2),[17],4.92
same,PRISMA enrichment of interactor (log2),[18],6.37
FKWGFAAFVVAVGAE [NDUFB3],PRISMA enrichment of interactor (log2),[12],5.33
same,PRISMA enrichment of interactor (log2),[19],4.79
same,PRISMA enrichment of interactor (log2),[20],4.34
same,PRISMA enrichment of interactor (log2),[21],6.43
same,PRISMA enrichment of interactor (log2),[22],4.57
same,PRISMA enrichment of interactor (log2),[23],4.13
same,PRISMA enrichment of interactor (log2),[24],4.37
LVVGFLLCLFLLMPP [TUG1],PRISMA enrichment of interactor (log2),[12],4.57
same,PRISMA enrichment of interactor (log2),[13],5.57
same,PRISMA enrichment of interactor (log2),[25],4.64
same,PRISMA enrichment of interactor (log2),[26],4.54
same,PRISMA enrichment of interactor (log2),[27],4.57
same,PRISMA enrichment of interactor (log2),[28],4.71
same,PRISMA enrichment of interactor (log2),[29],4.49
same,PRISMA enrichment of interactor (log2),[24],4.73
FCISSGSRSTSMPSM [RP11-140K17.3_2],PRISMA enrichment of interactor (log2),[30],5.7
same,PRISMA enrichment of interactor (log2),[31],3.84
same,PRISMA enrichment of interactor (log2),[32],5.38
